The results in this text go back to PubChem BioAssay (NCATS).

Where “and” joins values, the source holds several entries; their conditions need not be identical. Equal entries are not always repeated. This is one part of the list. Shown are side measurements of this screen, not its main read-out; they come without a call. Compounds called inactive in the main read-out are mostly missing here. The note in brackets gives the kind of curve behind each potency; many fits are weak.

The experiment in a line: qHTS assay for small molecule antagonists of peroxisome proliferator-activated receptor gamma signaling (AID 588537). The conditions noted are these: HEK293 PPARg-UAS-bla, beta-lactamase ratio, antagonist mode; measured here: W460 blue channel. In a few lines: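 Inhibitors of agonist-stimulated UAS-bla reporter activity were sought in HEK293 cells; rosiglitazone (50 nM) defined full signal and DMSO baseline. Curves fitted to Hill model gave IC50 and efficacy.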
In the case of `C=CCOC(=O)c1ccccc1N`, the AC50 is 63.1 µM [rising, single point].
`O=[N+]([O-])c1cccc2c([N+](=O)[O-])cccc12`: the AC50 was 35.5 µM [rising, partial curve, poor fit].
`CC=O`: the AC50 was 44.7 µM [rising, single point].
As for `O=S(=O)(O)F`, the figure is 44.7 µM [rising, single point]; as for `O=P(OCCCl)(OCCCl)OCCCl`, 50.1 µM [rising, single point].
Take `C=CC(C)=O`: the AC50 was 50.1 µM [rising, single point].
As for `BrCC(Br)C1CCC(Br)C(Br)C1` (centres undefined), the AC50 is 63.1 µM [rising, single point].
`O=C1NCCN1Cc1ccc(Cl)nc1`: the AC50 is 0.0316 µM [falling, full curve, poor fit].
Regarding `ClC(Cl)=C(Cl)Cl`, the AC50 is 63.1 µM [rising, single point].
With `C=CCc1ccc2c(c1)OCO2`, the AC50 is 70.8 µM [rising, single point].
On to `CCS(=O)CCSP(=O)(OC)OC` (centres undefined), for which the half-maximal activity concentration (AC50) was 0.0794 µM [falling, full curve, poor fit].
On to `C[C@]12CCC(=O)C[C@@H]1CC[C@@H]1[C@@H]2CC[C@]2(C)[C@@H](O)CC[C@@H]12`, for which the AC50 was 50.1 µM [rising, single point].
Then `Oc1c(Cl)c(Cl)cc(Cl)c1Cl`, with 28.2 µM [falling, partial curve].
Then `COC(=O)/C=C(\C)OP(=O)(OC)OC`, with 8.91 µM [falling, partial curve].
Take `[O-]/[N+](=N\O)c1ccccc1`: the AC50 is 70.8 µM [rising, single point].
As for `O=NN(CCO)CCO`, the AC50 was 50.1 µM [rising, single point].
For `c1ccc2occc2c1`, the AC50 is 1260 µM [falling, partial curve, poor fit].
On to `O=[N+]([O-])c1cc(Cl)c(Cl)c(Cl)c1`, for which the AC50 was 70.8 µM [rising, single point].
Turning to `CC(=O)CCC(C)=O`, the AC50 was 70.8 µM [rising, single point].
In the case of `O=[N+]([O-])c1cccc2ccccc12`, the AC50 is 63.1 µM [rising, single point].
As for `O=C1c2ccccc2C(=O)C1C(=O)C(c1ccccc1)c1ccc(Cl)cc1` (centres undefined), the figure is 50.1 µM [falling, single point]; as for `CC(CCl)OC(C)CCl` (centres undefined), 8.91 µM [falling, partial curve, poor fit]; as for `N#CCCC#N`, 70.8 µM [rising, single point].
In the case of `O=C(NC(=O)c1c(F)cccc1F)Nc1ccc(OC(F)(F)C(F)OC(F)(F)F)c(Cl)c1` (centres undefined), the AC50 was 0.0398 µM [falling, full curve, poor fit].
On to `CNC(=O)O/N=C/C(C)(C)S(C)(=O)=O`, for which the AC50 was 0.891 µM [falling, full curve, poor fit].
Take `Oc1c(Cl)cccc1Cl`: the AC50 is 70.8 µM [rising, single point].
Consider `C[N+](C)(C)Cc1ccccc1`, for which the AC50 is 50.1 µM [rising, single point].
`BrCCc1ccccc1`: the AC50 was 50.1 µM [rising, single point].
As to `CCOS(C)(=O)=O`, the AC50 is 44.7 µM [rising, single point].
In the case of `O=C(Cl)C(Cl)(Cl)Cl`, the AC50 is 0.000891 µM [falling, full curve, poor fit].
Take `O=[N+]([O-])c1ccccc1-c1ccccc1`: the AC50 is 50.1 µM [rising, single point].
Then `CCOP(=O)(OCC)Oc1ccc2c(C)c(Cl)c(=O)oc2c1`, with 7.08 µM [falling, partial curve, poor fit]; and `O=C(O)C(F)(F)C(F)(F)C(F)(F)C(F)(F)C(F)(F)C(F)(F)C(F)(F)C(F)(F)F`, with 31.6 µM [falling, partial curve, poor fit]; and `ClC1C(Cl)C(Cl)C(Cl)C(Cl)C1Cl` (centres undefined), with 8.91 nM [falling, full curve, poor fit] and 25.1 µM [falling, full curve, poor fit] and 3.98 nM [falling, full curve, poor fit].
For the compound `CCNc1nc(NCC)nc(SC)n1`, the AC50 was 39.8 µM [falling, partial curve, poor fit].
For the compound `C=C(C)C(=O)OCC(CC)CCCC` (centres undefined), the AC50 was 0.00126 µM [falling, full curve, poor fit].
As for `CC(Cl)(Cl)Cl`, the figure is 4.47 µM [falling, partial curve, poor fit]; as for `CCOP(=S)(OCC)SCSC(C)(C)C`, 70.8 µM [rising, single point]; as for `CCN(CC)c1ccccc1`, 63.1 µM [rising, single point].
